Measured values from patent US20220304926A1, “PHARMACEUTICAL COMPOSITION COMPRISING A COLLOIDAL DISPERSION AND METHODS AND USES THEREOF” (PREBONA AB, priority 2019, published 2022).
At least one structure is not confirmed: it was looked up by name or label, or the drawing left a doubt.

Test system: Huh7^A2HCV^Rep and Huh7^A2 cell lines
Experiment: MTT tetrazolium proliferation / cellular toxicity assay
Assay type: cell-based
Conditions: 24 hours post-addition; Huh^7A cell line
Protocol: Cells were seeded in flat bottom 96-well plates (Nuncleon™ Δ Surface, Denmark) at a density of 5 000 cells/well in 100 μL of culture medium without antibiotics (G418, puromycin and blasticidin). […] The final concentration of DMSO never exceeded 0.2%. AGSOL 1000-5-5, diluted in culture medium, was added at several concentrations: 0.01 ng/mL, 0.1 ng/mL, 1 ng/mL, 10 ng/mL, 0.1 μg/mL, 1 μg/mL, 10 μg/mL and 100 μg/mL. AGSOL 100-5-5 was added as described above, excluding the concentration 100 μg/mL. Medium without added cells and cells without any inhibitors constituted negative controls. […]
The 3-[4,5-dimethyltiazol-2-yl]-2,5-diphenyl tetrazolium bromide is cleaved by mitochondrial dehydrogenases of viable cells, leading to purple formazan in the form of insoluble crystals in aqueous solutions but dissolved in acidified isopropanol. The resulting purple solution is spectrophotometrically measured. […]
At time-points 24, 48, 72 and 96 hours post-addition of inhibitors, culture plates were removed from incubator into laminar flow hood. […] The background absorbance of multi-well plates was measured at 690 nm and was subtracted from the 570 nm values. Results were presented as the percentage of viability per condition (inhibitor/concentration) and the absorbance (A570 nm−A690 nm) per time-point for each inhibitor and per cell line. […]

## CC(C)(C)NC(=O)N[C@H](C(=O)N1C[C@H]2[C@@H]([C@H]1C(=O)NC(CC1CCC1)C(=O)C(N)=O)C2(C)C)C(C)(C)C (stereo partly shown) [Boceprevir]
  cell proliferation: increased cell proliferation
